Measurements taken from PMC3790753.
Substitutions are numbered along the chain they refer to. No constants are given. Whether binding was seen depends on the method and setting. Some results given as binding are weak or reduced against the parent protein; the word gives no strength. Tags and fused reporters may be left off the sequences shown.

Experiments:
Test in all cases: two-hybrid; Matchmaker 3 (Clontech), baits in pGBKT7, preys in pGADT7, Y2H Gold yeast; growth on media lacking leucine, tryptophan and histidine
[1] = target: T1, plakophilin-1 HD (amino acids 1-234), Gal4 DNA binding domain fusion (UniProt Q13835)
T1 sequence: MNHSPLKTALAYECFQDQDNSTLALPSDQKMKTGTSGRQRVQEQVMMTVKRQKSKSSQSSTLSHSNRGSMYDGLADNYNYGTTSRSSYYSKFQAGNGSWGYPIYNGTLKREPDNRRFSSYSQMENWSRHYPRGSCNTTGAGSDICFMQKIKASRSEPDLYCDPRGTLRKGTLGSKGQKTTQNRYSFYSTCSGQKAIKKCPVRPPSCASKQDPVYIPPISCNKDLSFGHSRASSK

[2] = target: T2, plakophilin-3 HD S285A, Gal4 DNA binding domain fusion (human) (UniProt Q9Y446)
T2 sequence: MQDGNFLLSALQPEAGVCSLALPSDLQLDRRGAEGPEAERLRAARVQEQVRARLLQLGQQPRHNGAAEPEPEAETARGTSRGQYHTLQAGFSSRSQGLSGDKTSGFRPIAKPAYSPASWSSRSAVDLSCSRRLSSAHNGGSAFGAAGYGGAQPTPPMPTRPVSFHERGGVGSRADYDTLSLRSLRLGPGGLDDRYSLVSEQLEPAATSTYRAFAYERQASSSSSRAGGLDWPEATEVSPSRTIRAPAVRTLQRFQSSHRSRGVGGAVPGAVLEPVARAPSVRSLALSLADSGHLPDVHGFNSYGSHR

[3] = target: T3, plakophilin-3 HD (amino acids 1-307), Gal4 DNA binding domain fusion (human) (UniProt Q9Y446)
T3 sequence: T2 sequence with A285S

[4] = target: T4, plakophilin-2 HD (amino acids 1-342), Gal4 DNA binding domain fusion (UniProt Q99959)
T4 sequence: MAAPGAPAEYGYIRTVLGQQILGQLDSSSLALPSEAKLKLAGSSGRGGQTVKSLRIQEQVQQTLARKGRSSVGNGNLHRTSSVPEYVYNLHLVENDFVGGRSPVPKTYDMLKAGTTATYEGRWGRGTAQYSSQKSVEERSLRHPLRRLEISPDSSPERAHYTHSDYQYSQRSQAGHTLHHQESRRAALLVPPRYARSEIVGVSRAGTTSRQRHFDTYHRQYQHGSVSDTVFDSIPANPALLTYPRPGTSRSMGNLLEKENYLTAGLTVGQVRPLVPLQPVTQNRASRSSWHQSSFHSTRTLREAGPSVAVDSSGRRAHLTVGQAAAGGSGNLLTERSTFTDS

binding [1]: binds
binding [2]: binds
binding [3]: binds
binding [4]: binds
B1: desmoplakin (amino acids 1-584) fused to the Gal4 activation domain (domain or fragment, UniProt P15924 1-584)
chain: MSCNGGSHPRINTLGRMIRAESGPDLRYEVTSGGGGTSRMYYSRRGVITDQNSDGYCQTGTMSRHQNQNTIQELLQNCSDCLMRAELIVQPELKYGDGIQLTRSRELDECFAQANDQMEILDSLIREMRQMGQPCDAYQKRLLQLQEQMRALYKAISVPRVRRASSKGGGGYTCQSGSGWDEFTKHVTSECLGWMRQQRAEMDMVAWGVDLASVEQHINSHRGIHNSIGDYRWQLDKIKADLREKSAIYQLEEEYENLLKASFERMDHLRQLQNIIQATSREIMWINDCEEEELLYDWSDKNTNIAQKQEAFSIRMSQLEVKEKELNKLKQESDQLVLNQHPASDKIEAYMDTLQTQWSWILQITKCIDVHLKENAAYFQFFEEAQSTEAYLKGLQDSIRKKYPCDKNMPLQHLLEQIKELEKEREKILEYKRQVQNLVNKSKKIVQLKPRNPDYRSNKPIILRALCDYKQDQKIVHKGDECILKDNNERSKWYVTGPGGVDMLVPSVGLIIPPPNPLAVDLSCKIEQYYEAILALWNQLYINMKSLVSWHYCMIDIEKIRAMTIAKLKTMRQEDYMKTIADLE
